Non-standard residues stand in square brackets, D forms with d. pGlu = O=C1CC[C@@H](C(=O)O)N1
Tests used:
whole blood = assay: 96-well plate whole blood multiplex cytokine release, IP-10 (MAGPIX bead assay, Example 2); type: cell-based, human; settings: Day-6, n = 10
PBMC = assay: Overnight IFNγ ELISpot assay with fresh PBMC (Example 2); type: cell-based, human; settings: Day-6, n = 5
Procedure: Ten HLA-DQ2.5+ adults with celiac disease diagnosed according to the National Institutes of Health Consensus Statement 2004 were enrolled (Table 7).^22 Subjects were required to have followed gluten-free diet for at least one year and without known gluten exposures within the previous two-months. […] Full inclusion and exclusion criteria are described in Table 8. Each of 3 consecutive days subjects consumed 3 cookies that were prepared from approximately 4.5 g wheat gluten, 3 g barley flour protein, and 1.5 g rye flour protein. Blood was collected before and six days after commencing the oral challenge. Blood was collected using a 21G butterfly needle directly into 10 mL lithium heparin tubes (BD Vacutainer® Heparin tube #367880) and QuantiFERON® NIL (0591-0205, Cellestis Ltd., Chadstone VIC 3148 Australia) and QuantiFERON® MITOGEN (0593-0201, Cellestis Ltd.).
Overnight IFNγ ELISpot assays (Human IFN-γ ELISpotPRO kit, transparent, ALP; Mabtech AB, #3420-2APT-10) were performed using PBMC freshly separated from heparinized blood diluted 1:1 in PBS with 2% fetal bovine serum (Stemcell Technologies #07905; Vancouver, BC, V5Z 1B3, Canada) overlaid on density gradient medium (Ficoll-Paque™ PLUS; GE Healthcare Lice Sciences #:17-1440-02) in SepMate™-50 tubes (Stemcell Technologies #15460). PBMC (8 million/mL) were resuspended in serum-free medium with gentamicin and phenol red (X-VIVO™15; Lonza, Walkersville Mass. 21793). PBMC (0.4 million/50 μL/well) and incubated with 50 μL 80% X-vivol5, 0.2% DMSO and 20% PBS in three triplicate wells (“medium only”), or with 50 μL PHA-L 20 μg/ml or peptide at 2× final concentration in 80% X-vivol5, 0.2% DMSO and 20% PBS. Peptide solutions to be added to individual ELISpot wells were prepared in 96-well U-bottom plates (60 μL/well) that were then sealed with adhesive ELISA plate cover slips before replacing the plastic lid and being frozen at −80° C. 96-well plates containing peptide solutions were thawed at room temperature for 10 min while being centrifuged at 300 g immediately prior to being added to ELISpot wells. Peptide pools and mitogen were assessed in triplicate wells, and individual peptides were assessed in duplicate wells. X-VIVO™15 (50 μL) was incubated with 80% X-vivol5, 0.2% DMSO and 20% PBS (50 μL) in triplicate wells (“no PBMC” control). A Zeiss automated ELISpot counter was used to determine spot forming units (SFU) per well (Zellnet Inc., Fort Lee, N.J. 07024). Laboratory staff were unaware of the arrangement of peptide solutions in ELISpot wells during assay setup and plate counting.

[1] = individual peptides 5 μM, rank among 17
[2] = Peptide 2 re-synthesised by Pepscan, 10 μg/mL (5.45 μM)

## [pGlu]LQPFPQPELPYPQPQ-NH2 [Peptide 1]
Whole blood; [1]
  IP-10 WB MAGPIX % max (rank): 3
PBMC; [1]
  IFNγ ELISpot % max (rank): 10

## [pGlu]PEQPIPEQPQPYPQQ-NH2 [Peptide 3]
Whole blood; [1]
  IP-10 WB MAGPIX % max (rank): 2
PBMC; [1]
  IFNγ ELISpot % max (rank): 2

## [pGlu]QPFPQPEQPFPWQP-NH2 [Peptide 2, CSBio and Pepscan batches tested separately]
Whole blood; [2]
  IP-10 WB MAGPIX % max (rank): 4
Whole blood; [1]
  IP-10 WB MAGPIX % max (rank): 5
PBMC; [2]
  IFNγ ELISpot % max (rank): 4
PBMC; [1]
  IFNγ ELISpot % max (rank): 9

Reference: patent US20170042991A1, “COMPOSITIONS COMPRISING GLUTEN PEPTIDES AND USES THEREOF” (ImmusanT, Inc., priority 2014, published 2017)
